Holding throughout (conditions): Selectivity Index, ratio CC50/EC50
One series deals with ZR-75-1. As to the kind of experiment: MTT cell proliferation assay, ZR-75-1. Format: cell-based. As to the method:
The antitumor activities of the compounds of the invention were evaluated by a cellular proliferation assay. The MTT [3-(4,5-dimethylthiazol-2-yl)-2,5-diphenyltetrazolium bromide] cell proliferation assay, first described by Mosmann (Mosmann T., “Rapid colorimetric assay for cellular growth and survival: application to proliferation and cytotoxicity assays,” J. Immunol. Methods 1983 Dec. 16; 65(1-2):55-63, and incorporated by reference in its entirety) is based on the ability of active mitochondrial reductase enzymes from viable cells to cleave the tetrazolium rings of the pale yellow MTT. The cleavage reaction form a purple formazan crystals which is largely impermeable to cell membranes resulting in its accumulation within healthy cells. Solubilisation of the cells by addition of a detergent liberates and solubilizes the formazan crystals. The number of surviving cells is directly proportional to the level of the formazan product created. The color can then be quantified spectrophotometrically. The production of purple formazan in cells treated with a compound is measured relative to the production in control cells, and dose-response curves can be generated. This assay measures the cell proliferation rate and conversely, when metabolic events lead to apoptosis or necrosis, the reduction in cell viability, thus also allowing the evaluation of the cytotoxicity of the analogues synthesized in the laboratory.
(§1) For Tables 3 and 4, the assays were performed with 1% DMSO. The abbreviation “n.d.” means “not determined.” The values EC50, CC50, and SI have the following definitions.
Cell growth equals total cell count without any inhibitor after 72 hours minus initial cell count. Total cell counts after 72 hrs of growth range from 230 to 346% of initial cell counts depending on the cell line.
Total cell counts after 24 hrs of growth range from 103 to 109% of initial cell counts depending on the cell line.
(§2) SI: Selectivity Index is the ratio CC50/EC50.
On the technique in general: Formazan colour is commonly taken as a measure of viable cells.

In a further series the test system is NCI H1395. The series can be described thus: MTT cell proliferation assay, NCI H1395.
In another series the test system is NCI H2052. The series can be described thus: MTT cell proliferation assay, NCI H2052.
Another series deals with PFSK-1. As to the kind of experiment: MTT cell proliferation assay, PFSK-1. The format is cell-based. As to the method:
The antitumor activities of the compounds of the invention were evaluated by a cellular proliferation assay. […] The cleavage reaction form a purple formazan crystals which is largely impermeable to cell membranes resulting in its accumulation within healthy cells. Solubilisation of the cells by addition of a detergent liberates and solubilizes the formazan crystals. The number of surviving cells is directly proportional to the level of the formazan product created. The color can then be quantified spectrophotometrically. The production of purple formazan in cells treated with a compound is measured relative to the production in control cells, and dose-response curves can be generated. This assay measures the cell proliferation rate and conversely, when metabolic events lead to apoptosis or necrosis, the reduction in cell viability, thus also allowing the evaluation of the cytotoxicity of the analogues synthesized in the laboratory.
as §1
Cell growth equals total cell count without any inhibitor after 72 hours minus initial cell count.
as §2

With `Cc1cn([C@@H]2CC(C)(CO)[C@@H](CO)O2)c(=O)[nH]c1=O` (mixture of isomers) [LCB-1004], the figures for the SI in the series on ZR-75-1 and with NCI H1395 were over 1.2 and over 1.5, respectively.

For `COC(=O)C1(C)C[C@@H](n2ccc(=O)[nH]c2=O)O[C@@H]1CO` (mixture of isomers) [LCB-1002], the SI in the series with NCI H1395 is on record as 44.8; in the series with NCI H2052 it was 3.0.

Take `CC1(C(N)=O)CC(n2cc(F)c(N)nc2=O)O[C@@H]1CO` (mixture of isomers) [LCB-1030]: the SI in the series with NCI H2052 is over 1.0.

As for `CC1(CO)C[C@@H](n2ccc(=O)[nH]c2=O)O[C@@H]1CO` (mixture of isomers) [LCB-1003], the SI in the series with NCI H1395 was 6.0; in the series with NCI H2052, 53.

As to `COC(=O)C1(C)CC(n2cc(C)c(=O)[nH]c2=O)OC1CO` (racemic) [LCB-1010, (±) methyl 2-(hydroxymethyl)-3-methyl-5-(5-methyl-2,4-dioxo-3,4-dihydropyrimidin-1(2H)-yl)tetrahydrofuran-3-carboxylate], in the series with ZR-75-1, the SI was over 2.8.

`COC(=O)c1cn([C@H]2S[C@@H](CO)C(O)[C@@H]2O)nn1` (some centres unmarked) [LCB-1013]: the SI with PFSK-1 is on record as over 1.1; in the series with ZR-75-1 it was over 1.3.

On to `Cc1cn([C@H]2CC(C)(CO)[C@@H](CO)O2)c(=O)[nH]c1=O` (mixture of isomers) [LCB-1007], for which the SI in the series on ZR-75-1 is recorded as over 1.1; with NCI H1395, 3.6.

`COC(=O)C1(C)C[C@H](n2cc(C)c(=O)[nH]c2=O)O[C@@H]1CO` (mixture of isomers) [LCB-1000]: the SI with NCI H1395 is over 2.2; with NCI H2052, 2.6.

As to `COC(=O)C1(C)C[C@H](n2cc(F)c(=O)[nH]c2=O)O[C@@H]1CO` (mixture of isomers) [LCB-1015, 5-(5-Fluoro-2,4-dioxo-3,4-dihydro-2H-pyrimidin-1-yl)-2-hydroxymethyl-3-methyl-tetrahydro-furan-3-carboxylic acid methyl ester], the SI with PFSK-1 is recorded as over 1.3; with ZR-75-1, over 1.1.

As to `CCOC(=O)[C@@H]1O[C@H](n2cc(F)c(=O)[nH]c2=O)CC1(C)C(=O)OCC` (stereo in doubt) [LCB-1024, (2R,5S)-diethyl5-(5-fluoro-2,4-dioxo-3,4-dihydropyrimidin-1(2H)-yl)-3-methyltetrahydrofuran-2,3-dicarboxylate], the results for the SI with PFSK-1 and with NCI H1395 were over 2.4 and over 2.7, respectively.

With `COC(=O)C1(C)C[C@@H](n2cc(C)c(=O)[nH]c2=O)O[C@@H]1CO` (mixture of isomers) [LCB-1001], the SI is listed as over 7.4 with NCI H1395 and 2.3 in the series with NCI H2052.

For the origin of these results see US8361988B2, “Nucleoside and nucleotide analogues with quaternary carbon centers and methods of use” (Institut de Recherches Cliniques de Montreal, priority 2007, dated 2013).
